Test system: Pfa1 cells
Assay: Cellular toxicity, same assay as Example B.4 without TAM (Example B.5)
Type: cell-based, mouse
Settings: TC50 divided by IC50 from Example B.4
Source text: Cellular Toxicity of Compounds of the Invention
An estimate of the toxicity for compounds of the invention was obtained by using the same assay as described in Example B.4, but without the addition of TAM. […] Such TC50 values obtained for certain compounds disclosed herein, together with an approximate therapeutic window (estimated by dividing each TC50 by the corresponding IC50 determined from example B.4) are shown in Table 3.

Row | Compound | Therapeutic Window (approx.. fold) [fold]
1 | c1ccc(CCNC2=Nc3ccccc3NC23CCOCC3)cc1 [O/S-347] | >20
2 | CC(NC1=Nc2ccccc2NC12CCOCC2)c1ccccc1 (stereo not drawn) [O/S-348] | >20
3 | Clc1cc2c(cc1Cl)NC1(CCSCC1)C(NCc1ccccc1)=N2 [O/S-349] | >200
4 | CC(C)(C)c1ccc(CNC2=Nc3ccccc3NC23CCOCC3)cc1 [O/S-350] | >100
5 | Fc1cccc(F)c1CNC1=Nc2ccccc2NC12CCSCC2 [O/S-351] | >100
6 | c1ccc(C(CNC2=Nc3ccccc3NC23CCOCC3)c2ccccc2)cc1 [O/S-352] | >50
7 | CC(CCc1ccccc1)NC1=Nc2ccccc2NC12CCOCC2 (stereo not drawn) [O/S-353] | >50
8 | Clc1ccc(CNC2=Nc3ccccc3NC23CCOCC3)c(Cl)c1 [O/S-354] | >200
9 | Fc1ccc(CNC2=Nc3ccccc3NC23CCOCC3)c(F)c1 [O/S-355] | >20
10 | c1ccc(CCCNC2=Nc3ccccc3NC23CCSCC3)cc1 [O/S-356] | >20
11 | Cc1cc(C)cc(CNC2=Nc3ccccc3NC23CCSCC3)c1 [O/S-357] | >20
12 | c1ccc(CCCCNC2=Nc3ccccc3NC23CCOCC3)cc1 [O/S-358] | >5
13 | Fc1ccc(CNC2=Nc3ccccc3NC23CCSCC3)c(F)c1 [O/S-359] | >5
14 | O=S1(=O)CCC2(CC1)Nc1ccccc1N=C2NCc1ccccc1 [O/S-363] | >5
15 | FC1(F)Oc2cc3c(cc2O1)NC1(CCOCC1)C(NCc1ccccc1)=N3 [O/S-366] | >200
16 | CC(NC1=Nc2ccccc2NC12CCSCC2)c1ccccc1 (stereo not drawn) [O/S-367] | >20
17 | c1ccc(CCNC2=Nc3ccccc3NC23CCSCC3)cc1 [O/S-368] | >10
18 | Cc1cc2c(cc1C)NC1(CCSCC1)C(NCc1ccccc1)=N2 [O/S-369] | >100

Reference: patent US10280179B2, “Spiroquinoxaline derivatives as inhibitors of non-apoptotic regulated cell-death” (Helmholtz Zentrum Munchen—Deutches Forschungszentrum Fur …, priority 2013, dated 2019)
